Laboratory results reported in article PMC7910539.
No constants are given. Whether binding was seen depends on the method and setting. In cells and extracts the contact can be indirect. Tags and fused reporters may be left off the sequences shown.

Amino acid sequences for entries named in this document (tags omitted).
UniProt P29311: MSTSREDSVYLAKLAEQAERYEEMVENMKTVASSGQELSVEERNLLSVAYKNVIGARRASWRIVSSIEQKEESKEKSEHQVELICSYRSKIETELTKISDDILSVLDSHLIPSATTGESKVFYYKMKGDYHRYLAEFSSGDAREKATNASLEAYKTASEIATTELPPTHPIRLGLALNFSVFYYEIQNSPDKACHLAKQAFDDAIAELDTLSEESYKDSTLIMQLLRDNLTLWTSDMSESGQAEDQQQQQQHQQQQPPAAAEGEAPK
UniProt P34730: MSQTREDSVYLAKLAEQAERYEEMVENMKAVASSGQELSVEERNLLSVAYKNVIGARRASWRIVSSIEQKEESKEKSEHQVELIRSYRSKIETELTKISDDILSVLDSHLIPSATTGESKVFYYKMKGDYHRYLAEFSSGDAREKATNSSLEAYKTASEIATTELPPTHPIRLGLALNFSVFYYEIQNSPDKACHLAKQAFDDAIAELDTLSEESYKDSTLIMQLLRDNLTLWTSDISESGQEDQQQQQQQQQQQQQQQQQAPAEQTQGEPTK

Biological target: T1, 6xHis-tagged (Sc)Pma1, yeast plasma-membrane H+-ATPase (S. cerevisiae) (UniProt P05030)
T1 sequence: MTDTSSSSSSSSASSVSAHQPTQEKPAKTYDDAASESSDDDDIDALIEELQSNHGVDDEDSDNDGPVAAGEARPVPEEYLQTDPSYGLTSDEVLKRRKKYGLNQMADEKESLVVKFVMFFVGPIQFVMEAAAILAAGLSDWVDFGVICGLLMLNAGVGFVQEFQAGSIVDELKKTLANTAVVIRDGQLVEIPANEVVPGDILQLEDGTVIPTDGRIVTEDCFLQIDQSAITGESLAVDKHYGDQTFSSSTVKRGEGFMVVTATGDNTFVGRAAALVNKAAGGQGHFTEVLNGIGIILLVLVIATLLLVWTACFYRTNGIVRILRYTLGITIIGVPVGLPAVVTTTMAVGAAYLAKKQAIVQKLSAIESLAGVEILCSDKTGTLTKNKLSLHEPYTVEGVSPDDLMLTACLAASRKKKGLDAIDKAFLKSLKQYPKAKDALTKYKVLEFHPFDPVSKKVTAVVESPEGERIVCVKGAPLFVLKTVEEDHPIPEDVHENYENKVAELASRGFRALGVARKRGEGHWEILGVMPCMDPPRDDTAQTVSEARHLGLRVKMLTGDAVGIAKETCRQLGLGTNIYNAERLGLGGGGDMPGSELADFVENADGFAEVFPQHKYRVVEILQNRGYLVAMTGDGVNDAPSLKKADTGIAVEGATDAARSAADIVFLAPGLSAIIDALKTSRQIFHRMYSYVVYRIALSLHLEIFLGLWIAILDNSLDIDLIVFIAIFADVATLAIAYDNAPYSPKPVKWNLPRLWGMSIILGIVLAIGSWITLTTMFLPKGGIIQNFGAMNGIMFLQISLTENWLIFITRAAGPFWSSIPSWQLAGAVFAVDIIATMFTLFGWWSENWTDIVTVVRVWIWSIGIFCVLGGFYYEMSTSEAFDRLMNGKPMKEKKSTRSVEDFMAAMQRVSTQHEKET
Experiment: pull-down; His-tagged H+-ATPase pulled down from yeast cell lysates with Dynabeads; cells grown on Gluc NH4+ then shifted to Gluc proline for 4 h; lysis buffer 50 mM Tris-HCl pH 7.2, 600 mM NaCl, 1% Nonidet P-40, 0.5% sodium deoxycholate; lysates and pulled-down fractions blotted with anti-14-3-3 and anti-polyhistidine

binding | Substance
no binding | Bmh1, yeast 14-3-3 protein (from UniProt P29311 1-267)
no binding | Bmh2, yeast 14-3-3 protein (from UniProt P34730 1-273)
